# Source: PubChem BioAssay AID720533 (National Center for Advancing Translational Sciences (NCATS), 2013)
# Values joined by “and” are separate entries in the source; they are usually repeats but may differ in a detail not shown here. Equal entries are not always repeated. About 750 (4.2%) of roughly 18,000 compounds were called active. The shares of active, inactive and inconclusive entries below differ from those in the screen. The call rests on the fitted dose curve; tested in HEK293 cells. A potency beside an inconclusive call is a rough fit, not a confirmed value. The source holds several records for some structures; these can differ, active in one and inactive in another.
# Test: qHTS for Inhibitors of binding or entry into cells for Lassa Virus
# Conditions: Lassa virus pseudotyped entry inhibition, cell-based qHTS; activity change, negative = inhibition: at 49.2 µM (top of the series) unless noted
# On the % scale 0 is the no-effect control and ±100 the full control effect; potency means the concentration at half of the fitted maximal effect.
SMILES,Potency,"activity change, negative = inhibition"
CN(C)c1ccc(-c2ccc3ncnc(NCc4ccccc4)c3c2)cc1,"inconclusive: 11.2 µM [inhibitor, partial curve]",
C=CC[C@@H]1C=CC(ON=C(C)CCC(=O)OC[C@H]2O[C@H](C#Cc3ccccc3)C=C[C@H]2Oc2ccc(C)cc2)[C@H](CO)O1 (some centres not stated),,inactive: -18.7% [at 8.59 µM]
COc1ccc2cccc(N3CCN(CCNC(=O)c4ccc(F)cc4)CC3)c2c1,"inconclusive: 35.5 µM [inhibitor, single point]",
Cc1ncc2c(c1CNC(=O)c1ccccc1F)CCN(C(=O)c1csc(-c3cccs3)n1)C2,"inconclusive: 35.5 µM [inhibitor, single point]",
Cc1ccc2occ(CN3CCOc4ccc(C(C)(O)COc5ccccc5)cc4C3)c(=O)c2c1 (configuration not stated),"inconclusive: 17.8 µM [inhibitor, partial curve]",
CCCCCCCCCCCCC/C=C/[C@@H](O)[C@@H](N)COP(=O)(O)O,"inconclusive: 14.1 µM [inhibitor, single point]",
COc1ccc(C(=O)c2ccccc2O)c(O)c1,"inconclusive: 7.08 µM [inhibitor, full curve, poor fit]",
CC(C)(C)NC[C@H](O)COc1ccccc1C1CCCC1,"inconclusive: 14.1 µM [inhibitor, single point]",
O=C(c1cnn2cccnc12)N1CCOc2ccc(C(O)C(c3ccccc3)c3ccccc3)cc2C1 (configuration not stated),"inconclusive: 14.1 µM [inhibitor, single point]",
N[C@@H](Cn1cc(I)c(=O)[nH]c1=O)C(=O)O,,inactive: -17.2%
CCCN(CCC)Cc1cc(=O)oc2cc(C)ccc12,,inactive: 8.61%
COc1cc2c(cc1OC)C(/C=C/c1ccc(OC)c(OC)c1OC)=NCC2,"inconclusive: 31.6 µM [inhibitor, single point]",
COC(=O)[C@@]1(C=C2c3ccc(OC)cc3[C@@H](OC)[C@@H]2C)[C@@H]2C=CC[C@@H]21,,inactive: -25.6% [at 8.59 µM]
CCc1ccc(C(=O)C(C)CN2CCCCC2)cc1 (configuration not stated),"inconclusive: 31.6 µM [inhibitor, partial curve]",
CC(=O)Oc1ccc(C2(c3ccc(OC(C)=O)cc3)C(=O)Nc3ccccc32)cc1,"inconclusive: 15.8 µM [inhibitor, partial curve] and inconclusive: 25.1 µM [inhibitor, partial curve]",
Cc1ccc2c(=O)c3ccccc3n(CCCN)c2c1C,active: 10 µM and inactive,

# Some of the entries so far, bar-delimited.
SMILES | Potency | activity change, negative = inhibition
CCCCCCCCCCCCC/C=C/[C@@H](O)[C@@H](N)COP(=O)(O)O | inconclusive: 14.1 µM [inhibitor, single point] | 
COc1ccc(C(=O)c2ccccc2O)c(O)c1 | inconclusive: 7.08 µM [inhibitor, full curve, poor fit] | 
